# Data reported in patent US8058394 (dated 2011).
# Assay: general procedure: Fmoc solid-phase peptide synthesis; HMPB-PEGA resin (from amino-PEGA resin); trityl chloride resin; MSNT/N-methylimidazole (first residue); PyBOP/DIPEA (thioesterification)
# Details: late stage modification step
substance,measurement,setting,value
AcNH-His-Ala-Ala-Phe-COSBn,step yield,run 1,75% and 98%
same,step yield,run 2,10%

# Values joined by “and” are separate entries in the source; they are usually repeats but may differ in a detail not shown here. Equal entries are not always repeated.
